PubChem BioAssay AID602196 | INSERM – 2012
Aim: 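Modifiers of cisplatin sensitivity in A549 cells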. Cell system: human A549 lung cancer cells. Reagent: siRNA pair against human genes. Timing: 48 h transfection before cisplatin; time from cisplatin to read-out not stated. Conditions: cisplatin at a dose killing half of control-siRNA cells; exact dose and duration not given. Read-out: 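Cisplatin cell death as a shift from the 50% death seen with control siRNA; siRNAs toxic or growth-blocking alone scored 0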. Reading the numbers: two-siRNA summed score (-2 to +2): higher = both siRNAs protect from cisplatin killing; -2 means both sensitise. Call rule: 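Each siRNA scores 0 if harmful alone by LDH or WST-1, otherwise +1 if it reduces and -1 if it increases cisplatin killing; a gene is active when both siRNAs agree (sum +2 or -2)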. Calls: active = both siRNAs shift cisplatin killing the same way; inactive = no consistent shift, or siRNA harmful alone.
Shown is an unselected part of about 23,000 reagents. 455 of them (2%) were called active. 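Active includes both protection and sensitisation; some change values fall well beyond the stated -50 to +50 range.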 Reagents against one gene are numbered here. Not all columns of the deposit are shown. Not stated in the record: the amount of reagent.

SLC10A6 → two-siRNA summed score (-2 to +2): 0; outcome: inactive
MBD3 → two-siRNA summed score (-2 to +2): 0; outcome: inactive
GRM7 → two-siRNA summed score (-2 to +2): -1; outcome: inactive
MRPL20 → two-siRNA summed score (-2 to +2): 0; outcome: inactive
ADORA3 #1 → two-siRNA summed score (-2 to +2): 0; outcome: inactive
ADORA3 #2 → two-siRNA summed score (-2 to +2): 1; outcome: inactive
TXNDC2 → two-siRNA summed score (-2 to +2): 0; outcome: inactive
CHST3 → two-siRNA summed score (-2 to +2): 0; outcome: inactive
FUCA1 → two-siRNA summed score (-2 to +2): 1; outcome: inactive
GPR78 → two-siRNA summed score (-2 to +2): 0; outcome: inactive
OR10W1 → two-siRNA summed score (-2 to +2): 0; outcome: inactive
CCL18 → two-siRNA summed score (-2 to +2): 0; outcome: inactive
TP53TG3 → two-siRNA summed score (-2 to +2): 1; outcome: inactive
ENTPD7 → two-siRNA summed score (-2 to +2): 0; outcome: inactive
KCNS3 → two-siRNA summed score (-2 to +2): 0; outcome: inactive
TMCO4 → two-siRNA summed score (-2 to +2): 0; outcome: inactive
NPPA → two-siRNA summed score (-2 to +2): 1; outcome: inactive
MANBAL → two-siRNA summed score (-2 to +2): 0; outcome: inactive
LOC440374 → two-siRNA summed score (-2 to +2): 1; outcome: inactive
CC2D2B → two-siRNA summed score (-2 to +2): 0; outcome: inactive
LSM6 → two-siRNA summed score (-2 to +2): 0; outcome: inactive
UBAP2L → two-siRNA summed score (-2 to +2): 0; outcome: inactive
LYPD4 → two-siRNA summed score (-2 to +2): -1; outcome: inactive
GDPD1 → two-siRNA summed score (-2 to +2): 0; outcome: inactive
PROK1 → two-siRNA summed score (-2 to +2): 1; outcome: inactive
CCL22 → two-siRNA summed score (-2 to +2): 0; outcome: inactive
COMMD4P1 → two-siRNA summed score (-2 to +2): 0; outcome: inactive
TRAT1 → two-siRNA summed score (-2 to +2): 0; outcome: inactive
RNF214 → two-siRNA summed score (-2 to +2): 1; outcome: inactive
EXOC6 #1 → two-siRNA summed score (-2 to +2): 0; outcome: inactive
EXOC6 #2 → two-siRNA summed score (-2 to +2): 0; outcome: inactive

Reformatted: results already given.
Gene,reagent no.,two-siRNA summed score (-2 to +2),outcome
TMCO4,1,0,inactive
NPPA,1,1,inactive
MANBAL,1,0,inactive
LOC440374,1,1,inactive
CC2D2B,1,0,inactive
